In PMC10976589:
No constants are given. Whether binding was seen depends on the method and setting. Binding seen in cells or lysates may run through a third protein. Some binding calls cover weakened binding; strength is not graded here.

Protein sequences, listed by entry. Tags and fused reporters are not part of them. Lines headed by an entry give the natural chain unless they say otherwise; changes in a name come on top. Chains listed by the source or under a name are the forms on record and can include a tag or linker.
UniProt P23528: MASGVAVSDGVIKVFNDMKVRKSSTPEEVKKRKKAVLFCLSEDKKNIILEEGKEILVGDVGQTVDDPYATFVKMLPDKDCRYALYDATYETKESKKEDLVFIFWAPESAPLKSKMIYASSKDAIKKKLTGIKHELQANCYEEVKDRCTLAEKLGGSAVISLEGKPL
UniProt Q9Y281: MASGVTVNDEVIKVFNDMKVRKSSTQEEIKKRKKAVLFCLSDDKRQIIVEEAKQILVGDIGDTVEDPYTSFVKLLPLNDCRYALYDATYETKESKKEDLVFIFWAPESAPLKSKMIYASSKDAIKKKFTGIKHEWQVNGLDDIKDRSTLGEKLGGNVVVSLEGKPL
His-cofilin2ΔS24 (cofilin2 without Ser24) (Q9Y281, form named): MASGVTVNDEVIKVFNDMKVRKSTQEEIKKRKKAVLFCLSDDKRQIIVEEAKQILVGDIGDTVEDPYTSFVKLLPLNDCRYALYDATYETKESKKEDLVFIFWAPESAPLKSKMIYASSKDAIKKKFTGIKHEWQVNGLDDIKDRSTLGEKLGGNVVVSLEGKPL
UniProt P78527: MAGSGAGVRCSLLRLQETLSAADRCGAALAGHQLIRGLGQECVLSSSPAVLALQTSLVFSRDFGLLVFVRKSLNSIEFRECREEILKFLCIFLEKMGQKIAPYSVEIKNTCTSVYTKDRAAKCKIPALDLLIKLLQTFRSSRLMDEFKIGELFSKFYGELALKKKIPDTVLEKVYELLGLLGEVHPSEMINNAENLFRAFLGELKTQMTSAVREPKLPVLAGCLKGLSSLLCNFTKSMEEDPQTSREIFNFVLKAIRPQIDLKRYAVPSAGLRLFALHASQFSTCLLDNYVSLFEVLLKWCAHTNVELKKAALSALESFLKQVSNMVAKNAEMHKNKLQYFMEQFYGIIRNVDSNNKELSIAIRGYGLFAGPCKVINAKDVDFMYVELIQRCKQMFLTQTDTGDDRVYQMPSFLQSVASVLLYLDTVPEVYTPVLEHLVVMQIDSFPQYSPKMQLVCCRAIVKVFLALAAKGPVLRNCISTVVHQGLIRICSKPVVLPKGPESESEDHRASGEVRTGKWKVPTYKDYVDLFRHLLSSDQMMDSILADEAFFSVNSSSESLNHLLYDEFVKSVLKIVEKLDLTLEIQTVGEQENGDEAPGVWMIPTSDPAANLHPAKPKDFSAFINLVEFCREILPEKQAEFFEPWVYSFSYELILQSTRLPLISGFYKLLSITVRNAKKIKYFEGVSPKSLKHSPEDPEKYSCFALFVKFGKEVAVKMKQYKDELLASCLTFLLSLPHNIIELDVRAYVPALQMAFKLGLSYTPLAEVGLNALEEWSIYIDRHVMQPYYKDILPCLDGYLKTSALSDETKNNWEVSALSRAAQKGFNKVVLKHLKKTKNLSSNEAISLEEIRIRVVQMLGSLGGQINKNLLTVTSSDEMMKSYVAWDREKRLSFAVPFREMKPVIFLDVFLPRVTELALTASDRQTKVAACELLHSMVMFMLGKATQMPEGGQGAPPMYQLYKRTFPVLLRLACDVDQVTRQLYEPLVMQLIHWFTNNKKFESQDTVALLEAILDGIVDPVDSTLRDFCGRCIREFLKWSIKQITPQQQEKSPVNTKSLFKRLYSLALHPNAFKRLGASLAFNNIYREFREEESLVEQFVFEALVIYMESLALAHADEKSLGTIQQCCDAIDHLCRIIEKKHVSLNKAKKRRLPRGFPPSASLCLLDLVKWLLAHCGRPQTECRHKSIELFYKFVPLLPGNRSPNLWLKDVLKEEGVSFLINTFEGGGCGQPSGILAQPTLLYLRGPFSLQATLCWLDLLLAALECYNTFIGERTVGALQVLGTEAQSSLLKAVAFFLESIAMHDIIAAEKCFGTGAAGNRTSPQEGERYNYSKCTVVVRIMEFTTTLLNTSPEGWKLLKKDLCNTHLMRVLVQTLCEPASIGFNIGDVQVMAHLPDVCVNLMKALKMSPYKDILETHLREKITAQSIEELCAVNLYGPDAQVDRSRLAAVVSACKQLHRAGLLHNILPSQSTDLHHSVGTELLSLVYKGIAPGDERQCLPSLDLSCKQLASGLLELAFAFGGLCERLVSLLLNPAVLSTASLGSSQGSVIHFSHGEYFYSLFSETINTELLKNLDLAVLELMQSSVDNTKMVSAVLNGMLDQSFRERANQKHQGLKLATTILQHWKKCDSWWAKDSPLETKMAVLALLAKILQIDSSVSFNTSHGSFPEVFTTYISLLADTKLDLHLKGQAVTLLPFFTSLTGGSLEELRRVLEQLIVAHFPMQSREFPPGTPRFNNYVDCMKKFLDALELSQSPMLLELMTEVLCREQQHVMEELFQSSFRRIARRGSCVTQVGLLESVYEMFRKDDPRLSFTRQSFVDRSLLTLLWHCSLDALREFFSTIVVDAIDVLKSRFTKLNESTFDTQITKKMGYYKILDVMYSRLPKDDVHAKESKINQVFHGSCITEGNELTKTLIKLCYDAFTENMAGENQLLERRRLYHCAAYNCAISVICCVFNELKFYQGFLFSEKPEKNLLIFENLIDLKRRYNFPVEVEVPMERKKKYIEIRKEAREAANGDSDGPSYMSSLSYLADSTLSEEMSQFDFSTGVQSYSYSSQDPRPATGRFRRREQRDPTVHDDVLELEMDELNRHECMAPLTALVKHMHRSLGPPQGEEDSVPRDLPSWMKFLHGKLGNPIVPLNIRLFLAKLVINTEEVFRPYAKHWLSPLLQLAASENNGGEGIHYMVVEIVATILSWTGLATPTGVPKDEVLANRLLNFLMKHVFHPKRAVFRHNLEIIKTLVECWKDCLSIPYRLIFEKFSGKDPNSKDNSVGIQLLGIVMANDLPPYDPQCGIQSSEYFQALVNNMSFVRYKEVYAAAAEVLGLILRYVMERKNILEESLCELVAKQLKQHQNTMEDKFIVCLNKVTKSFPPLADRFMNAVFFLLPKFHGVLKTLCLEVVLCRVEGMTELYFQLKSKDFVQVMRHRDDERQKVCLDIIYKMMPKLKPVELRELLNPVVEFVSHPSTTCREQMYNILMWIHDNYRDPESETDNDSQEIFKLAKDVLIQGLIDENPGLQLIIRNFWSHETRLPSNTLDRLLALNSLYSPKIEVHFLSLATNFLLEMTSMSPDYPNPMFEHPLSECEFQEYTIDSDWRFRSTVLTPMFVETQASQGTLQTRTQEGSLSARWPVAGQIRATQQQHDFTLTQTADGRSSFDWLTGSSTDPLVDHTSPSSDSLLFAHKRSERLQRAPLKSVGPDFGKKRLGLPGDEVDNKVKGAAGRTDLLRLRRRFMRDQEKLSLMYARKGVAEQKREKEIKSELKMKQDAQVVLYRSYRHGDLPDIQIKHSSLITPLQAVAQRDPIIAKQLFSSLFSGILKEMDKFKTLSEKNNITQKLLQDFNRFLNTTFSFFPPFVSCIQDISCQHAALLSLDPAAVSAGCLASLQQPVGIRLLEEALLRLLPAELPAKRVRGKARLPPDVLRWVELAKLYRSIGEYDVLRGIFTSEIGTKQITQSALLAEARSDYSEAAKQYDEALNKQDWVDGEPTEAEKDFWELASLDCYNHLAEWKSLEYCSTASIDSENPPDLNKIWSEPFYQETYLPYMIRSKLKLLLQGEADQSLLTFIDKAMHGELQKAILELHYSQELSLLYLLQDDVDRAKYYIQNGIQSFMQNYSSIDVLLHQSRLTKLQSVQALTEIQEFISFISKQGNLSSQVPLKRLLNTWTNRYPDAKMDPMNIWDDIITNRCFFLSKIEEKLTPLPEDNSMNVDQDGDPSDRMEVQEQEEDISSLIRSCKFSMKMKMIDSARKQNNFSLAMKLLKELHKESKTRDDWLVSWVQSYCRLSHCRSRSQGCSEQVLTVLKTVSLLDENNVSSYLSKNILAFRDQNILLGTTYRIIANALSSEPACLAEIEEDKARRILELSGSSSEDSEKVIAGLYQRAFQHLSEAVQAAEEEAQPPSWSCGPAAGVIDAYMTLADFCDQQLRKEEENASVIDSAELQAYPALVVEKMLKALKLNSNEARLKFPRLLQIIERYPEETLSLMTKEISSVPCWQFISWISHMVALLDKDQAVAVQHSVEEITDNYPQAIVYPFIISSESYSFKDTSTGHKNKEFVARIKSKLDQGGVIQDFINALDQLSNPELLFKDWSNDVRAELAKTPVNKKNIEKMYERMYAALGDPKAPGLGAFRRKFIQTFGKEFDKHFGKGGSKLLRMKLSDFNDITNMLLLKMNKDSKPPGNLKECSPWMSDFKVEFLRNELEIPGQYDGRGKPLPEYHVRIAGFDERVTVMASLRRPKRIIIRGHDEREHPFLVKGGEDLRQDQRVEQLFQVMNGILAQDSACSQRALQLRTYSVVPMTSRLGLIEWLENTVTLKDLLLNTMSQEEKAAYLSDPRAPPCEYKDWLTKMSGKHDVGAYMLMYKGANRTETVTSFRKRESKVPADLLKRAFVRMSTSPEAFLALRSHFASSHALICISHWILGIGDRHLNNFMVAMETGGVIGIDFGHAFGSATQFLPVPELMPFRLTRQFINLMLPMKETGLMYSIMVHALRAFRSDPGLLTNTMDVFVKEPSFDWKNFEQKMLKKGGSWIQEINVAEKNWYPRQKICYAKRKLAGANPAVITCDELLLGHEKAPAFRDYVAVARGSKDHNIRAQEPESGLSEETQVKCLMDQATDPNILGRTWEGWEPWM

Tests used:
[1] = biological target: cofilin1, endogenous in HCAECs (human (endogenous in HCAECs)) (UniProt P23528); test: co-IP; exogenous HA-DNA-PKcs (Fig. S8C to E); cells and treatment not told in the text shown
[2] = biological target: T1, ADF (destrin), endogenous in HCAECs (human (endogenous in HCAECs)) (UniProt P60981); test: as above
T1 sequence: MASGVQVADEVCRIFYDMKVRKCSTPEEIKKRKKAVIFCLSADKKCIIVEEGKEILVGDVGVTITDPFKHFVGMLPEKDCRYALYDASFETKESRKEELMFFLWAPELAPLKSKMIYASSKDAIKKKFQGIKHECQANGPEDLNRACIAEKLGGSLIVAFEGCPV

[3] = biological target: cofilin2, endogenous in HCAECs (human (endogenous in HCAECs)) (UniProt Q9Y281); test: as above
[4] = biological target: cofilin1, endogenous in HCAECs (human (endogenous in HCAECs)) (UniProt P23528); test: co-IP; endogenous proteins of HCAECs, control conditions or LPS; immunoprecipitates of DNA-PKcs and of cofilin1, cofilin2 or ADF immunoblotted (Fig. 6F to H)
[5] = biological target: T1, ADF (destrin), endogenous in HCAECs (human (endogenous in HCAECs)); test: as above
[6] = biological target: cofilin2, endogenous in HCAECs (human (endogenous in HCAECs)) (UniProt Q9Y281); test: as above
[7] = biological target: His-cofilin2ΔS24 (cofilin2 without Ser24) (UniProt Q9Y281); test: co-IP; HCAECs transfected with His-tagged cofilin2 deletion constructs, exposed to LPS; His immunoprecipitates immunoblotted for DNA-PKcs (Fig. 6M)

HA-DNA-PKcs (catalytic subunit of DNA-dependent protein kinase, HA-tagged, exogenous) (from UniProt P78527 1-4128) (enzyme)
binding [1]: no binding
binding [2]: no binding
binding [3]: binds

catalytic subunit of DNA-dependent protein kinase (DNA-PKcs), endogenous in HCAECs (from UniProt P78527 1-4128) (enzyme)
binding [4]: no binding
binding [5]: no binding
binding [6]: binds
binding [7]: binds
